Results deposited as PubChem BioAssay AID652243 (Drosophila RNAi Screening Center, 2013).

- Assay: 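Fly regulators of androgen-dependent reporter output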 (primary screen)
- System: Drosophila S2R+ cells
- Reagent: long dsRNA against Drosophila genes
- Duration: 72 h (48 h, then 24 h hormone)
- Conditions: synthetic androgen R1881 at 10 nM for 24 h
- Measurement: 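Firefly light from an androgen-responsive reporter and Renilla control light per well, raw and unnormalised, for each of two replicates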
- Reading the numbers: firefly reporter light: higher = more light from androgen-responsive reporter; Renilla control light: higher = more constitutive control signal (cell number, transfection)
- Active means: 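Across duplicate plates, a knock-down whose log firefly/Renilla ratio shifted a set fold down or up from the GFP/LacZ control mean was a hit; the downward cut appears as both 1.5 and 3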
- Meaning of the calls: active = hit: reporter lowered or raised; inactive = no hit
In all, the deposit lists about 24,000 reagents; below is a random part of those with a known target gene and a result. In the full data, 246 (1%) got an active call. 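Plates not normalised; calls are printed but the firefly/Renilla ratio behind them is not deposited; fold cut for lowering reported inconsistently.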 Raw values vary from plate to plate and are shown uncorrected. Reagents against one gene are numbered here. No sequences are given here. Not stated in the record: the amount of reagent.

egl (egalitarian) gave firefly reporter light, replicate 1 = 8.11e5; firefly reporter light, replicate 2 = 8.52e5; Renilla control light, replicate 1 = 4.78e5; Renilla control light, replicate 2 = 4.44e5; inactive. For CheB93b (Chemosensory protein B 93b), the entry reads firefly reporter light, replicate 1 = 5.33e5; firefly reporter light, replicate 2 = 4.78e5; Renilla control light, replicate 1 = 2.71e5; Renilla control light, replicate 2 = 2.70e5; inactive. Silencing of CG13443 resulted in: firefly reporter light, replicate 1 = 61816; firefly reporter light, replicate 2 = 1.25e5; Renilla control light, replicate 1 = 7.27e5; Renilla control light, replicate 2 = 1.21e6; inactive. Against CG3592 the deposit lists firefly reporter light, replicate 1 = 1.49e5; firefly reporter light, replicate 2 = 2.05e5; Renilla control light, replicate 1 = 2.11e6; Renilla control light, replicate 2 = 1.90e6; inactive. Against Best3 (Bestrophin 3) the deposit lists firefly reporter light, replicate 1 = 2.04e5; firefly reporter light, replicate 2 = 1.63e5; Renilla control light, replicate 1 = 2.08e6; Renilla control light, replicate 2 = 1.73e6; inactive. Depletion of CG14968 #1 gave: firefly reporter light, replicate 1 = 58454; firefly reporter light, replicate 2 = 1.02e5; Renilla control light, replicate 1 = 9.47e5; Renilla control light, replicate 2 = 1.49e6; inactive.

CG14968 #2 showed firefly reporter light, replicate 1 = 3.44e5; firefly reporter light, replicate 2 = 2.59e5; Renilla control light, replicate 1 = 1.63e6; Renilla control light, replicate 2 = 1.41e6; inactive. Oseg6 (Outer segment 6) scored firefly reporter light, replicate 1 = 62797; firefly reporter light, replicate 2 = 1.08e5; Renilla control light, replicate 1 = 1.16e6; Renilla control light, replicate 2 = 1.42e6; inactive. After knock-down of Mfap1 (Microfibril-associated protein 1) #1 the results were firefly reporter light, replicate 1 = 7.39e5; firefly reporter light, replicate 2 = 8.92e5; Renilla control light, replicate 1 = 1.92e6; Renilla control light, replicate 2 = 2.12e6; inactive. Mfap1 (Microfibril-associated protein 1) #2 showed firefly reporter light, replicate 1 = 3.16e5; firefly reporter light, replicate 2 = 3.43e5; Renilla control light, replicate 1 = 8.10e5; Renilla control light, replicate 2 = 6.20e5; inactive. Silencing of CG9416 gave: firefly reporter light, replicate 1 = 66587; firefly reporter light, replicate 2 = 1.14e5; Renilla control light, replicate 1 = 8.26e5; Renilla control light, replicate 2 = 1.38e6; inactive. Pmvk (Phosphomevalonate kinase) #1 gave firefly reporter light, replicate 1 = 1.58e5; firefly reporter light, replicate 2 = 1.63e5; Renilla control light, replicate 1 = 1.73e6; Renilla control light, replicate 2 = 1.48e6; inactive.

With knock-down of Pmvk (Phosphomevalonate kinase) #2, the record shows inactive.
